Assay [1] addresses PbTpk2^(1-270) (two-hybrid fusion) (P. brasiliensis) (UniProt C1GNL3). The assay can be described thus: two-hybrid; Matchmaker GAL4 Two-Hybrid System 3; yeast AH109 co-transformed with pGBKT7 bait and pGADT7 prey; growth on SD-Ade/-His/-Leu/-Trp plates and blue colonies on alpha-X-gal; genes swapped between the vectors, positive only if positive in both.
Assay [2] concerns the target PbTpk2^(265-583) (two-hybrid fusion) (P. brasiliensis) (UniProt C1GNL3). Described as above.
The target of assay [3] is PbTpk2^(1-225)-GST (P. brasiliensis) (UniProt C1GNL3). The assay can be described thus: pull-down; GST fusion protein immobilised on GST beads as bait, His-tagged protein as prey; 20 mM HEPES pH 7.9, 600 mM NaCl, 0.05% Tween 20, 5% glycerol, 1 mM DTT; overnight at 4°C, 9 washes; Western blot with anti-hexahistidine antibody; both purified. On the technique in general: A western blot detects proteins with antibodies after separation by electrophoresis.

The chains behind the UniProt entries cited, without tags or fusion partners. Where a name states a change or a piece, a line headed by the entry shows the natural chain unless it says otherwise.
UniProt C1GXS6: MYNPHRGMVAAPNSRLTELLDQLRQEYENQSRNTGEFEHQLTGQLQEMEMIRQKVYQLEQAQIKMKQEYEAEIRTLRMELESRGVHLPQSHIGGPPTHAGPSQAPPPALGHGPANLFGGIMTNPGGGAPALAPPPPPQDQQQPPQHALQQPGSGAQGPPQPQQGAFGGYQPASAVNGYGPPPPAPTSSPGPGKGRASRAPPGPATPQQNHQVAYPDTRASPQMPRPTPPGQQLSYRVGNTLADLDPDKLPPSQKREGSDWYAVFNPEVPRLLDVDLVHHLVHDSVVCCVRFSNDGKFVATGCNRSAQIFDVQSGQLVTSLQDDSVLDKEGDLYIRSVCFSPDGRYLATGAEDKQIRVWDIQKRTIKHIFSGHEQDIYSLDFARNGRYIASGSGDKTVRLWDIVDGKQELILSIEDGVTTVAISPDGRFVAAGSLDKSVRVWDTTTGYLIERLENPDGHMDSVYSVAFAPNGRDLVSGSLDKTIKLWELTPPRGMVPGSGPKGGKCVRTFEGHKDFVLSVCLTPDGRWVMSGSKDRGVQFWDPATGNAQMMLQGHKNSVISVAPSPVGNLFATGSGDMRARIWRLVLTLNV

In assay [4] the target is PbGpa1, G-alpha protein of P. brasiliensis (two-hybrid fusion) (P. brasiliensis). The assay can be described thus: two-hybrid.
Assay [5] concerns the target PbGpb1, G-beta protein of P. brasiliensis (two-hybrid fusion) (P. brasiliensis). The assay can be described thus: two-hybrid.
The target of assay [6] is PbGpa2, G-alpha protein of P. brasiliensis (two-hybrid fusion) (P. brasiliensis). The assay can be described thus: two-hybrid.
The target in assay [7] is PbGpa3, G-alpha protein of P. brasiliensis (two-hybrid fusion) (P. brasiliensis). The assay can be described thus: two-hybrid.
In assay [8] the target is PbTupA, transcriptional co-regulator of P. brasiliensis (two-hybrid fusion) (P. brasiliensis). The assay can be described thus: two-hybrid.

Results are given in words; binding and its absence hold for the method and conditions named. For some of these results: A result given as binding can be weak or reduced; the word gives no strength. For some of these results: Where a sequence is shown, tags or fusion partners need not be part of it.

As to “PbGpg1, G-gamma protein of P. brasiliensis (two-hybrid fusion) (from UniProt A7L9Y3)”, the binding result in assay [1] and in assay [2] was “binds” each time.
As for PbTupA-His6 (from UniProt C1GXS6), the binding entry in assay [3] is “binds”.

B1: ScCyr1^(1-365), N-terminal domain of S. cerevisiae adenylate cyclase (two-hybrid fusion) (domain or fragment, UniProt P08678 1-365)
chain: MSSKPDTGSEISGPQRQEEQEQQIEQSSPTEANDRSIHDEVPKVKKRHEQNSGHKSRRNSAYSYYSPRSLSMTKSRESITPNGMDDVSISNVEHPRPTEPKIKRGPYLLKKTLSSLSMTSANSTHDDNKDHGYALNSSKTHNYTSTHNHHDGHHDHHHVQFFPNRKPSLAETLFKRFSGSNSHDGNKSGKESKVANLSLSTVNPAPANRKPSKDSTLSNHLADNVPSTLRRKVSSLVRGSSVHDINNGIADKQIRPKAVAQSENTLHSSDVPNSKRSHRKSFLLGSTSSSSSRRGSNVSSMTNSDSASMATSGSHVLQHNVSNVSPTTKSKDSVNSESADHTNNKSEKVTPEYNENIPENSNSDN
With B1, the binding result in assay [4] and in assay [5] was “no binding” each time.

B2: ScGpr1^(679-961), ScGpa2 association domain of the GPCR Gpr1 of S. cerevisiae (two-hybrid fusion) (domain or fragment, UniProt Q12361 679-961)
chain: KEKPWNYSWAKTESKYLIEKYILKGELGEKEILKFCHSNWGKRGWYYRGKWKKRKCWKYSTNPLKRILWFVERFFKQLFELKLHFSFYDNCDDFEYWENYYSAKDSNDNKRTESDETKTNSSDRSLPSNSLELQAMLNNITAEEVEVPLFWRIIHHIPMLGGIDLDELNRLLKIRYNNDHFSLPGLKFALNQNKSHDKHQDVSTNSMVKSSFFSSNIVTNDDENSIEEDKNLRYSDASASENYLVKPTIPGTTPDPIIEAQNDNDSSDSSGIDLIAFLRNGPL
For B2, the binding entry in assay [4], in assay [6], in assay [7] and in assay [5] was “no binding” each time.

B3: ScCyr1^(600-800), RAS-association domain of S. cerevisiae adenylate cyclase (two-hybrid fusion) (domain or fragment, UniProt P08678 600-800)
chain: SSYTNAYMEANREQDNKTPILNKTKSYTKKFTSSSVNMNSPDGAQSSGLLLQDEKDDEVECQLEHYYKDFSDLDPKRHYAIRIFNTDDTFTTLSCTPATTVEEIIPALKRKFNITAQGNFQISLKVGKLSKILRPTSKPILIERKLLLLNGYRKSDPLHIMGIEDLSFVFKFLFHPVTPSHFTPEQEQRIMRSEFVHVDLR
For the molecule B3, the binding result in assay [4] and in assay [5] was “no binding” each time.

B4: ScTpk2, PKA catalytic subunit of S. cerevisiae (two-hybrid fusion) (enzyme, UniProt P06245 1-380)
chain: MEFVAERAQPVGQTIQQQNVNTYGQGVLQPHHDLQQRQQQQQQRQHQQLLTSQLPQKSLVSKGKYTLHDFQIMRTLGTGSFGRVHLVRSVHNGRYYAIKVLKKQQVVKMKQVEHTNDERRMLKLVEHPFLIRMWGTFQDARNIFMVMDYIEGGELFSLLRKSQRFPNPVAKFYAAEVILALEYLHAHNIIYRDLKPENILLDRNGHIKITDFGFAKEVQTVTWTLCGTPDYIAPEVITTKPYNKSVDWWSLGVLIYEMLAGYTPFYDTTPMKTYEKILQGKVVYPPYFHPDVVDLLSKLITADLTRRIGNLQSGSRDIKAHPWFSEVVWERLLAKDIETPYEPPITSGIGDTSLFDQYPEEQLDYGIQGDDPYAEYFQDF
For B4, the binding result in assay [4], in assay [5] and in assay [8] was “no binding” in each case.

B5: ScCyr1^(350-480), G-alpha association domain of S. cerevisiae adenylate cyclase (two-hybrid fusion) (domain or fragment, UniProt P08678 350-480)
chain: TPEYNENIPENSNSDNKREATTPTIETPISCKPSLFRLDTNLEDVTDITKTVPPTAVNSTLNSTHGTETASPKTVIMPEGPRKSVSMADLSVAAAAPNGEFTSTSNDRSQWVAPQSWDVETKRKKTKPKGR
As for B5, the binding result in assay [4] and in assay [5] was “no binding” each time.
